Test results reported in ChEMBL document CHEMBL3085714 (J Med Chem, 2013).
The source gives many values for each of these; only a part stands here.

Experiments:
Homo sapiens [1] = species: Homo sapiens; test: Selectivity for p38alpha MAP kinase (unknown origin) over VEGF-R2 (unknown origin)
Homo sapiens [2] = species: Homo sapiens; test: Selectivity for p38alpha MAP kinase (unknown origin) over TRK-C (unknown origin)
Homo sapiens [3] = species: Homo sapiens; test: Selectivity for p38alpha MAP kinase (unknown origin) over TRK-A (unknown origin)
Homo sapiens [4] = species: Homo sapiens; test: Selectivity for p38alpha MAP kinase (unknown origin) over STK17A (unknown origin)
Homo sapiens [5] = species: Homo sapiens; test: Selectivity for p38alpha MAP kinase (unknown origin) over SRC (unknown origin)
Homo sapiens [6] = species: Homo sapiens; test: Selectivity for p38alpha MAP kinase (unknown origin) over SAK (unknown origin)
Homo sapiens [7] = species: Homo sapiens; test: Selectivity for p38alpha MAP kinase (unknown origin) over S6K-beta (unknown origin)
Homo sapiens [8] = species: Homo sapiens; test: Selectivity for p38alpha MAP kinase (unknown origin) over RPS6KA6 (unknown origin)
Homo sapiens [9] = species: Homo sapiens; test: Selectivity for p38alpha MAP kinase (unknown origin) over CDK4/CycD3 (unknown origin)
Homo sapiens [10] = species: Homo sapiens; test: Selectivity for p38alpha MAP kinase (unknown origin) over CDK1/CycA (unknown origin)
Homo sapiens [11] = species: Homo sapiens; test: Selectivity for p38alpha MAP kinase (unknown origin) over CDC42BPA (unknown origin)
Homo sapiens [12] = species: Homo sapiens; test: Selectivity for p38alpha MAP kinase (unknown origin) over BRSK1 (unknown origin)
Homo sapiens [13] = species: Homo sapiens; test: Selectivity for p38alpha MAP kinase (unknown origin) over BLK (unknown origin)
Homo sapiens [14] = species: Homo sapiens; test: Selectivity for p38alpha MAP kinase (unknown origin) over Aurora-A (unknown origin)
Homo sapiens [15] = species: Homo sapiens; test: Selectivity for p38alpha MAP kinase (unknown origin) over AKT2 (unknown origin)
Homo sapiens [16] = species: Homo sapiens; test: Selectivity for p38alpha MAP kinase (unknown origin) over ACV-R1B (unknown origin)
Homo sapiens [17] = species: Homo sapiens; test: Selectivity for p38alpha MAP kinase (unknown origin) over ABL1 T315I mutant (unknown origin)
Homo sapiens [18] = species: Homo sapiens; test: Selectivity for p38alpha MAP kinase (unknown origin) over ABL1 F317l mutant (unknown origin)
Homo sapiens [19] = species: Homo sapiens; test: Selectivity for p38alpha MAP kinase (unknown origin) over ACV-RL1 (unknown origin)
Homo sapiens [20] = species: Homo sapiens; test: Selectivity for p38alpha MAP kinase (unknown origin) over wild type RET (unknown origin)
Homo sapiens [21] = species: Homo sapiens; test: Selectivity for p38alpha MAP kinase (unknown origin) over PRKG2 (unknown origin)
Homo sapiens [22] = species: Homo sapiens; test: Selectivity for p38alpha MAP kinase (unknown origin) over PRKG1 (unknown origin)
Homo sapiens [23] = species: Homo sapiens; test: Selectivity for p38alpha MAP kinase (unknown origin) over PRK2 (unknown origin)
Homo sapiens [24] = species: Homo sapiens; test: Selectivity for p38alpha MAP kinase (unknown origin) over PKC-theta (unknown origin)
Homo sapiens [25] = species: Homo sapiens; test: Selectivity for p38alpha MAP kinase (unknown origin) over PKC-mu (unknown origin)
Homo sapiens [26] = species: Homo sapiens; test: Selectivity for p38alpha MAP kinase (unknown origin) over PKC-epsilon (unknown origin)
Homo sapiens [27] = species: Homo sapiens; test: Selectivity for p38alpha MAP kinase (unknown origin) over PAK7 (unknown origin)
Homo sapiens [28] = species: Homo sapiens; test: Selectivity for p38alpha MAP kinase (unknown origin) over p38-gamma (unknown origin)
Homo sapiens [29] = species: Homo sapiens; test: Selectivity for p38alpha MAP kinase (unknown origin) over p38-delta (unknown origin)
Homo sapiens [30] = species: Homo sapiens; test: Selectivity for p38alpha MAP kinase (unknown origin) over NLK (unknown origin)
Homo sapiens [31] = species: Homo sapiens; test: Selectivity for p38alpha MAP kinase (unknown origin) over MUSK (unknown origin)
Homo sapiens [32] = species: Homo sapiens; test: Selectivity for p38alpha MAP kinase (unknown origin) over MKNK1 (unknown origin)
Homo sapiens [33] = species: Homo sapiens; test: Selectivity for p38alpha MAP kinase (unknown origin) over MET M1250T mutant (unknown origin)
Homo sapiens [34] = species: Homo sapiens; test: Selectivity for p38alpha MAP kinase (unknown origin) over MET D1228N mutant (unknown origin)
Homo sapiens [35] = species: Homo sapiens; test: Selectivity for p38alpha MAP kinase (unknown origin) over MATK (unknown origin)
Homo sapiens [36] = species: Homo sapiens; test: Selectivity for p38alpha MAP kinase (unknown origin) over MARK1 (unknown origin)
Homo sapiens [37] = species: Homo sapiens; test: Selectivity for p38alpha MAP kinase (unknown origin) over MAPKAPK5 (unknown origin)
Homo sapiens [38] = species: Homo sapiens; test: Selectivity for p38alpha MAP kinase (unknown origin) over MAPKAPK2 (unknown origin)
Homo sapiens [39] = species: Homo sapiens; test: Selectivity for p38alpha MAP kinase (unknown origin) over MAP4K4 (unknown origin)
Homo sapiens [40] = species: Homo sapiens; test: Selectivity for p38alpha MAP kinase (unknown origin) over LTK (unknown origin)
Homo sapiens [41] = species: Homo sapiens; test: Selectivity for p38alpha MAP kinase (unknown origin) over LRRK2 R1441C mutant (unknown origin)
Homo sapiens [42] = species: Homo sapiens; test: Selectivity for p38alpha MAP kinase (unknown origin) over LIMK1 (unknown origin)
Homo sapiens [43] = species: Homo sapiens; test: Selectivity for p38alpha MAP kinase (unknown origin) over INSR (unknown origin)
Homo sapiens [44] = species: Homo sapiens; test: Selectivity for p38alpha MAP kinase (unknown origin) over IKK-epsilon (unknown origin)
Homo sapiens [45] = species: Homo sapiens; test: Selectivity for p38alpha MAP kinase (unknown origin) over IKK-beta (unknown origin)
Homo sapiens [46] = species: Homo sapiens; test: Selectivity for p38alpha MAP kinase (unknown origin) over HRI (unknown origin)
Homo sapiens [47] = species: Homo sapiens; test: Selectivity for p38alpha MAP kinase (unknown origin) over GRK5 (unknown origin)
Homo sapiens [48] = species: Homo sapiens; test: Selectivity for p38alpha MAP kinase (unknown origin) over FES (unknown origin)
Homo sapiens [49] = species: Homo sapiens; test: Selectivity for p38alpha MAP kinase (unknown origin) over ERK1 (unknown origin)
Homo sapiens [50] = species: Homo sapiens; test: Selectivity for p38alpha MAP kinase (unknown origin) over EPHA7 (unknown origin)
Homo sapiens [51] = species: Homo sapiens; test: Selectivity for p38alpha MAP kinase (unknown origin) over EPHA4 (unknown origin)
Homo sapiens [52] = species: Homo sapiens; test: Selectivity for p38alpha MAP kinase (unknown origin) over wild-type EGFR (unknown origin)
Homo sapiens [53] = species: Homo sapiens; test: Selectivity for p38alpha MAP kinase (unknown origin) over EGFR 747 to 749 deletion/A750P mutant (unknown origin)
Homo sapiens [54] = species: Homo sapiens; test: Selectivity for p38alpha MAP kinase (unknown origin) over EGFR 746 to 750 deletion mutant (unknown origin)
Homo sapiens [55] = species: Homo sapiens; test: Selectivity for p38alpha MAP kinase (unknown origin) over DYRK1A (unknown origin)
Homo sapiens [56] = species: Homo sapiens; test: Selectivity for p38alpha MAP kinase (unknown origin) over DDR2 (unknown origin)
Homo sapiens [57] = species: Homo sapiens; test: Selectivity for p38alpha MAP kinase (unknown origin) over DCAMKL2 (unknown origin)
Homo sapiens [58] = species: Homo sapiens; test: Selectivity for p38alpha MAP kinase (unknown origin) over CSK (unknown origin)
Homo sapiens [59] = species: Homo sapiens; test: Selectivity for p38alpha MAP kinase (unknown origin) over CSF1-R (unknown origin)
Homo sapiens [60] = species: Homo sapiens; test: Selectivity for p38alpha MAP kinase (unknown origin) over COT (unknown origin)
Homo sapiens [61] = species: Homo sapiens; test: Selectivity for p38alpha MAP kinase (unknown origin) over CLK3 (unknown origin)
Homo sapiens [62] = species: Homo sapiens; test: Selectivity for p38alpha MAP kinase (unknown origin) over CK1-gamma3 (unknown origin)
Homo sapiens [63] = species: Homo sapiens; test: Selectivity for p38alpha MAP kinase (unknown origin) over CK1-epsilon (unknown origin)
Homo sapiens [64] = species: Homo sapiens; test: Selectivity for p38alpha MAP kinase (unknown origin) over CK1-delta (unknown origin)

Measured: Selectivity ratio

Cc1cc(F)c(NC(=O)c2ccsc2)cc1Nc1ccc2c(c1)OCc1ccc(OC[C@H](O)CO)cc1C2=O
> 1000: all assays above
